These results are taken from PMC4520715.

The chains behind the UniProt entries cited, without tags or fusion partners. Residues count along the entry.
UniProt Q9UMX0: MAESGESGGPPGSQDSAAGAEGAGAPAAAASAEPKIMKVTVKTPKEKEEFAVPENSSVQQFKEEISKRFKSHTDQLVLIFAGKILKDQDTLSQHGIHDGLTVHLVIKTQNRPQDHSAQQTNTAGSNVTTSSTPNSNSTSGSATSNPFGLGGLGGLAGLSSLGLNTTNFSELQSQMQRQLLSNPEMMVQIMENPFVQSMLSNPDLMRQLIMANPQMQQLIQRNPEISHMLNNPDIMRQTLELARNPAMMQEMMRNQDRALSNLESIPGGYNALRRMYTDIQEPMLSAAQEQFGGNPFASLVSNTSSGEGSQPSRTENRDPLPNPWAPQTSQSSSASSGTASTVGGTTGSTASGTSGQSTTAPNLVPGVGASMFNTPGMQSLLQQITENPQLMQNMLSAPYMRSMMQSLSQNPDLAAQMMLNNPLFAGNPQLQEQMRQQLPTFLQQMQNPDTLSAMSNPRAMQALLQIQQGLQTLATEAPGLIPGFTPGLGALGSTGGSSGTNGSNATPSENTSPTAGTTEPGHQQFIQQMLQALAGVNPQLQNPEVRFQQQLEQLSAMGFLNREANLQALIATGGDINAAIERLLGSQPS
UniProt P9WK63, residues 30-182: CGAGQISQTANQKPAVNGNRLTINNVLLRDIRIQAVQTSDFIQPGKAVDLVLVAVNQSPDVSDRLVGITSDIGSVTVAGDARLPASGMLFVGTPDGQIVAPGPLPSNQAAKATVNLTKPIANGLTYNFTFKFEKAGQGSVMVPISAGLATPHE

In the assay the target is myc-UBQLN1 (human) (human) (UniProt Q9UMX0). Nature of the assay: co-IP.

These are yes or no findings as the source states them, for the method shown. Binding seen in cells or lysates may run through a third protein. Some results given as binding are weak or reduced against the parent protein; the word gives no strength. Where a sequence is shown, tags or fusion partners need not be part of it.

As for Rv3584-V5 (from UniProt P9WK63 30-182), the binding entry was “binds”.

B1: Rv2911-V5 (protein, UniProt I6Y204 23-291)
chain: AWADADVQPAGSVPIPDGPAQTWIVADLDSGQVLAGRDQNVAHPPASTIKVLLALVALDELDLNSTVVADVADTQAECNCVGVKPGRSYTARQLLDGLLLVSGNDAANTLAHMLGGQDVTVAKMNAKAATLGATSTHATTPSGLDGPGGSGASTAHDLVVIFRAAMANPVFAQITAEPSAMFPSDNGEQLIVNQDELLQRYPGAIGGKTGYTNAARKTFVGAAARGGRRLVIAMMYGLVKEGGPTYWDQAATLFDWGFALNPQASVGSL
Turning to B1, the binding entry is “binds”.
